These are yes or no findings as the source states them, for the method shown. A result given as binding can be weak or reduced; the word gives no strength.
Target: RhoA (residues 1-181) bound to GTPγS (UniProt P61586)
Assay: crystal structure; p114-PH·RhoA·GTPγS complex; vapor diffusion at 20 °C; 22–24% PEG 3350, 100 mM Bis-Tris pH 5.8–6.1, 200 mM ammonium sulfate; 1.4 Å; both purified

Chains of the proteins cited; added tags and fusions are not shown. Residues count along the entry.
UniProt P61586, residues 1-181: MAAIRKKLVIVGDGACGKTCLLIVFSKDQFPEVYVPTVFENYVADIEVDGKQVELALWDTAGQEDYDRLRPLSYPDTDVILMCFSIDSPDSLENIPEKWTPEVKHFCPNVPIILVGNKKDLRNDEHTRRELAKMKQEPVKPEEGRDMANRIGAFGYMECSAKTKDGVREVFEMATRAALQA

Question: How did the binding turn out when “PH domain from mouse p114RhoGEF (residues 302-444) (from UniProt Q6P9R4-1) (domain or fragment)” was run?
Answer: The binding was “binds”.
